From the supplement of paper PMC4604168 (melanoma cell lines)
The list shows a part of the results. Repeats are few or missing, and single values can be far off.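 Imaging used 1,536-well plates; nuclei positive for cleaved PARP by antibody were divided by total DNA-stained nuclei to yield the apoptosis fraction. Doses for screening kept most cells viable, and cell lines differ markedly in resting and induced cleaved-PARP levels.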

Tested on: C32
Experiment: cleaved PARP positive nuclei fraction relative to DMSO control; melanoma cells; higher = more apoptosis
Conditions: library dose: low library concentration; 72 h

Q: `N.N.[Cl][Pt][Cl]` [cisplatin] + Cn1c(Nc2ccc(C(F)(F)F)cc2)nc2cc(Oc3ccnc(-c4ncc(C(F)(F)F)[nH]4)c3)ccc21 [CHIR265] (first compound 1.6 µM, partner dose 0.08 µM) was tested. Which “cleaved PARP positive nuclei fraction” value did it give?
A: Its value is 73.8%.

Q: With `C[C@]12O[C@H](C[C@]1(O)CO)n1c3ccccc3c3c4c(c5c6ccccc6n2c5c31)CNC4=O` [Lestaurtinib] + C=C(c1ccc(C(=O)O)cc1)c1cc2c(cc1C)C(C)(C)CCC2(C)C [Bexarotene] (first compound 0.004 µM, partner dose 2 µM) as the compound, how does the “cleaved PARP positive nuclei fraction” value read?
A: The value was 70.9%.

Q: How did the “cleaved PARP positive nuclei fraction” value turn out when `N.N.[Cl][Pt][Cl]` [cisplatin] + CO[C@H]1C[C@@H]2CC[C@@H](C)[C@@](O)(O2)C(=O)C(=O)N2CCCC[C@H]2C(=O)O[C@H]([C@H](C)C[C@@H]2CC[C@@H](OCCO)[C@H](OC)C2)CC(=O)[C@H](C)/C=C(\C)[C@@H](O)[C@@H](OC)C(=O)[C@H](C)C[C@H](C)/C=C/C=C/C=C/1C [everolimus] (first compound 1.6 µM, partner dose 0.02 µM) was run?
A: The value was 102%.

Q: For `COc1ccc(C2=N[C@@H](c3ccc(Cl)cc3)[C@@H](c3ccc(Cl)cc3)N2C(=O)N2CCNC(=O)C2)c(OC(C)C)c1` [Nutlin-3] + N.N.[Cl][Pt][Cl] [cisplatin] (first compound 0.1 µM, partner dose 1.6 µM), which “cleaved PARP positive nuclei fraction” value is on record?
A: The value was 75.4%.

Q: With `Cn1sc(=O)n(Cc2ccccc2)c1=O` + N.N.[Cl][Pt][Cl] [cisplatin] (first compound 0.4 µM, partner dose 1.6 µM) as the compound, how does the “cleaved PARP positive nuclei fraction” value read?
A: Its value is 77.9%.

Q: How did the “cleaved PARP positive nuclei fraction” value turn out when `Cn1cc(C2=C(c3cn(C4CCN(Cc5ccccn5)CC4)c4ccccc34)C(=O)NC2=O)c2ccccc21` [Enzastaurin] + CN(c1ncccc1CNc1nc(Nc2ccc3c(c2)CC(=O)N3)ncc1C(F)(F)F)S(C)(=O)=O [PF562271] (first compound 0.8 µM, partner dose 0.08 µM) was run?
A: Its value is 47%.

Q: How did the “cleaved PARP positive nuclei fraction” value turn out when `C[C@]12O[C@H](C[C@]1(O)CO)n1c3ccccc3c3c4c(c5c6ccccc6n2c5c31)CNC4=O` [Lestaurtinib] + CCCS(=O)(=O)Nc1ccc(F)c(C(=O)c2c[nH]c3ncc(Cl)cc23)c1F [PLX4720] (first compound 0.004 µM, partner dose 0.08 µM) was run?
A: The value was 79.1%.

Q: Which “cleaved PARP positive nuclei fraction” value does the source give for `C[C@]12O[C@H](C[C@]1(O)CO)n1c3ccccc3c3c4c(c5c6ccccc6n2c5c31)CNC4=O` [Lestaurtinib] + COc1ccc(Cl)c(Nc2nc3ccccc3nc2NS(=O)(=O)c2cccc(NC(=O)C(C)(C)N)c2)c1 [XL147] (first compound 0.004 µM, partner dose 0.8 µM) here?
A: The value was 96%.

Q: For `N.N.[Cl][Pt][Cl]` [cisplatin] + Cn1nnc2c(C(N)=O)ncn2c1=O [temozolomide] (first compound 1.6 µM, partner dose 2 µM), which “cleaved PARP positive nuclei fraction” value is on record?
A: The value was 82.1%.

Q: For `Cn1cc(C2=C(c3cn(C4CCN(Cc5ccccn5)CC4)c4ccccc34)C(=O)NC2=O)c2ccccc21` [Enzastaurin] + C=CCNC1=C2C[C@@H](C)C[C@H](OC)[C@H](O)[C@@H](C)/C=C(\C)[C@H](OC(N)=O)[C@@H](OC)/C=C\C=C(/C)C(=O)NC(=CC1=O)C2=O [Tanespimycin] (first compound 0.8 µM, partner dose 0.002 µM), which “cleaved PARP positive nuclei fraction” value is on record?
A: Its value is 68.8%.

Q: `CS(=O)(=O)c1ccc(C(=O)Nc2ccc(Cl)c(-c3ccccn3)c2)c(Cl)c1` [vismodegib] + C[As](C)SC[C@H](NC(=O)CC[C@H](N)C(=O)O)C(=O)NCC(=O)O [Darinaparsin] (first compound 1 µM, partner dose 0.4 µM) was tested. Which “cleaved PARP positive nuclei fraction” value did it give?
A: Its value is 226%.

Q: For `CS(=O)(=O)c1ccc(C(=O)Nc2ccc(Cl)c(-c3ccccn3)c2)c(Cl)c1` [vismodegib] + N.N.[Cl][Pt][Cl] [cisplatin] (first compound 1 µM, partner dose 1.6 µM), which “cleaved PARP positive nuclei fraction” value is on record?
A: Its value is 70.5%.

Q: Which “cleaved PARP positive nuclei fraction” value does the source give for `CCCS(=O)(=O)Nc1ccc(F)c(C(=O)c2c[nH]c3ncc(Cl)cc23)c1F` + C[As](C)SC[C@H](NC(=O)CC[C@H](N)C(=O)O)C(=O)NCC(=O)O [Darinaparsin] (first compound 0.08 µM, partner dose 0.4 µM) here?
A: Its value is 214%.

Q: Which “cleaved PARP positive nuclei fraction” value does the source give for `C[C@]12O[C@H](C[C@]1(O)CO)n1c3ccccc3c3c4c(c5c6ccccc6n2c5c31)CNC4=O` [Lestaurtinib] + C=CCNC1=C2C[C@@H](C)C[C@H](OC)[C@H](O)[C@@H](C)/C=C(\C)[C@H](OC(N)=O)[C@@H](OC)/C=C\C=C(/C)C(=O)NC(=CC1=O)C2=O [Tanespimycin] (first compound 0.004 µM, partner dose 0.002 µM) here?
A: The value was 159%.

Q: Which “cleaved PARP positive nuclei fraction” value does the source give for `C[C@]12O[C@H](C[C@]1(O)CO)n1c3ccccc3c3c4c(c5c6ccccc6n2c5c31)CNC4=O` [Lestaurtinib] + O=C(O)[C@@H]1[O][Sb](=[O])([O][Sb]2(=[O])[O][C@H]([C@H](O)CO)[C@H](O)[C@H](C(=O)O)[O]2)[O][C@H]([C@H](O)CO)[C@@H]1O [stibogluconate] (first compound 0.004 µM, partner dose 2 µM) here?
A: The value was 84.9%.

Q: For `Cn1cc(C2=C(c3cn(C4CCN(Cc5ccccn5)CC4)c4ccccc34)C(=O)NC2=O)c2ccccc21` [Enzastaurin] + C=C(c1ccc(C(=O)O)cc1)c1cc2c(cc1C)C(C)(C)CCC2(C)C [Bexarotene] (first compound 0.8 µM, partner dose 2 µM), which “cleaved PARP positive nuclei fraction” value is on record?
A: Its value is 79.2%.
